Laboratory results published in paper PMC4634812, “Characterization of proliferating cell nuclear antigen (PCNA) from pathogenic yeast Candida albicans and its functional analyses in S. Cerevisiae” (BMC Microbiology, 2015).
No constants are given. Whether binding was seen depends on the method and setting. Some binding calls cover weakened binding; strength is not graded here.

Amino acid sequences for entries named in this document (tags omitted). A change or cut given only in a name is not applied to a line headed by its entry.
UniProt P15873: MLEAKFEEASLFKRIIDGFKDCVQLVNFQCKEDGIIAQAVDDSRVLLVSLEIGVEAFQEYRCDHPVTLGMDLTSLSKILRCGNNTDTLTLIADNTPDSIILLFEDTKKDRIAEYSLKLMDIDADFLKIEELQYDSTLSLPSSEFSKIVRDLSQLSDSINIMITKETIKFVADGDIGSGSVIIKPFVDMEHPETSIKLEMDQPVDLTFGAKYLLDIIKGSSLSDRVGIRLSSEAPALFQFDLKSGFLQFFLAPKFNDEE

What was measured:
[1] = target: Saccharomyces cerevisiae PCNA (ScPCNA), wild type (S. cerevisiae) (UniProt P15873); assay: urea-PAGE; 12 % polyacrylamide gel containing 6 M urea, Coomassie stain; both purified
[2] = target: Saccharomyces cerevisiae PCNA G178S mutant (S. cerevisiae) (UniProt P15873); assay: cross-linking; about 20 μg protein in 20 mM HEPES pH 7.5 with glutaraldehyde, 5 min at 37 °C, then 12 % SDS-PAGE; both purified
[3] = target: Candida albicans proliferating cell nuclear antigen (CaPCNA), wild type (Candida albicans SC5314) (UniProt Q5AMN0); assay: urea-PAGE; 12 % polyacrylamide gel containing 6 M urea, Coomassie stain; both purified

“Saccharomyces cerevisiae PCNA (ScPCNA), wild type (from UniProt P15873 1-258)” was tested, and the binding [1] was “no binding (condition: 6 M urea)”.

In the case of “Saccharomyces cerevisiae PCNA G178S mutant (from UniProt P15873 1-258)”, the binding [2] is reported as “binds weakly”.

B1: Candida albicans proliferating cell nuclear antigen (CaPCNA), wild type (natural protein, Candida albicans SC5314, UniProt Q5AMN0 1-259, looked up)
chain: MLEGKFEEAALLKKVVEAIKDCVKKCNFNCSEHGITVQAVDDSRVLLVSLLIGQTSFSEYRCDRDVTLGIDLESFSKIIKSANNEDFLTLLAEDSPDQIMAILEEKQKEKISEYSLKLMDIDSEFLQIDDMEYDAVVNMPSSDFAKLVRDLKNLSESLRVVVTKDSVKFTSEGDSGSGSVILKPYTNLKNERESVTISLDDPVDLTFGLKYLNDIVKAATLSDVITIKLADKTPALFEFKMQSGGYLRFYLAPKFDDDE
notes: PCNA (POL30) of Candida albicans SC5314, orf19.4616 of the Candida Genome Database, 259 amino acids; the orf was amplified from genomic DNA with primers from the start to the stop codon; A few residues of the Prescission site and the cloning site may remain at the N-terminus after cleavage; also called orf19.4616; CaO19.12086; source: E. coli BL21-DE3, purified (glutathione beads, eluted by …)
In the case of B1, the binding [3] is reported as “no binding (condition: 6 M urea)”.
